Laboratory results: the supplement of paper PMC8007513
Some of the results follow. Single values are uncertain, as repeats are few or missing.

Each molecule was assayed on Saccharomyces cerevisiae BY4743 (assay: growth (OD600) with compound + IPBC relative to untreated control; higher = less growth inhibition). Conditions: compound concentration: 133 uM; IPBC concentration: 0.5 ug/ml; 20 h.
Experimental: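 NMCCC compounds (133 uM) combined with IPBC (0.5 ug/ml) against Saccharomyces cerevisiae BY4743 in YPD, 96-well plates. Growth was read as OD600 at 20 h and expressed as % of the untreated control. Single pass.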
In the case of `CCC1=CC=C(NC(=O)CN2\C=C/N(C(=O)C2=O)C3=CC(=CC(=C3)C)C)C=C1` + CCCCNC(=O)OCC#CI [3-iodo-2-propynyl butylcarbamate (IPBC)], the growth is reported as 91.1%.
Molecule `Cc1nn(Cn2cc(Cl)cn2)c(C)c1NC(=O)c1ccc(Cl)cc1` + CCCCNC(=O)OCC#CI [3-iodo-2-propynyl butylcarbamate (IPBC)] has a growth of 103%.
`CC(=O)Nc1c(C)noc1/C=C\c1ccc(C)c(S(=O)(=O)NC2CCCC2)c1` + CCCCNC(=O)OCC#CI [3-iodo-2-propynyl butylcarbamate (IPBC)] was tested, and the growth was 98.2%.
`CCN\1C(=O)NC(=O)\C(=C1N)SC2=NC3=CC=CC=C3S2` + CCCCNC(=O)OCC#CI [3-iodo-2-propynyl butylcarbamate (IPBC)] showed a growth of 96.7%.
`CCn1c(C)cc(C(=O)CSc2n[nH]c(N)n2)c1C` + CCCCNC(=O)OCC#CI [3-iodo-2-propynyl butylcarbamate (IPBC)] showed a growth of 110%.
Molecule `CC(C)CN1\C(=C(/C(=O)N(C)C1=O)C2=CSC(=N2)NC3=CC=C(Cl)C=C3)N` + CCCCNC(=O)OCC#CI [3-iodo-2-propynyl butylcarbamate (IPBC)] has a growth of 106%.
For `CCOc1ccccc1C(=O)N(Cc1ccc(N(C)C)cc1)c1ccccn1` + CCCCNC(=O)OCC#CI [3-iodo-2-propynyl butylcarbamate (IPBC)], the growth was 114%.
In the case of `COC/1=C/C(=O)N(/N=C1C(=O)NC2=CC=C(F)C(=C2)C(F)(F)F)C3=CC=C(C)C=C3` + CCCCNC(=O)OCC#CI [3-iodo-2-propynyl butylcarbamate (IPBC)], the growth is reported as 91.9%.
With `COCC(=O)Nc1nc2nc(-c3ccccc3)cc(O)n2n1` + CCCCNC(=O)OCC#CI [3-iodo-2-propynyl butylcarbamate (IPBC)] the growth was 87.2%.
`COc1ccc(CNC(=O)c2ccc(NS(=O)(=O)c3ccc(C(C)O)cc3)cc2)cc1OC` (stereo unspecified) + CCCCNC(=O)OCC#CI [3-iodo-2-propynyl butylcarbamate (IPBC)] gave a growth of 107%.
Molecule `CC(C)CCNC(=O)c1cnn2c(C(F)(F)F)cc(-c3cccs3)nc12` + CCCCNC(=O)OCC#CI [3-iodo-2-propynyl butylcarbamate (IPBC)] has a growth of 84.4%.
In the case of `CC(C)CCNC(=O)C(Cc1ccccc1)NS(=O)(=O)c1ccc2c(c1)c(=O)n(C)c(=O)n2C` (stereo unspecified) + CCCCNC(=O)OCC#CI [3-iodo-2-propynyl butylcarbamate (IPBC)], the growth is reported as 107%.
Work on `CCOc1ccc(CNC(=O)C(C)n2nc(C)c3ccccc32)cc1OC` (stereo unspecified) + CCCCNC(=O)OCC#CI [3-iodo-2-propynyl butylcarbamate (IPBC)] yielded a growth of 88.9%.
Molecule `CC(=O)c1c(C)[nH]c(C(=O)COC(=O)c2cccc(OC(F)F)c2)c1C` + CCCCNC(=O)OCC#CI [3-iodo-2-propynyl butylcarbamate (IPBC)] has a growth of 99.8%.
Work on `COc1ccccc1OCCn1c(=O)oc2ccc(C)cc21` + CCCCNC(=O)OCC#CI [3-iodo-2-propynyl butylcarbamate (IPBC)] yielded a growth of 99.6%.
`CCOC(=O)C(NC(=O)Cc1ccccc1)(Nc1ccc(S(N)(=O)=O)cc1)C(F)(F)F` (stereo unspecified) + CCCCNC(=O)OCC#CI [3-iodo-2-propynyl butylcarbamate (IPBC)] gave a growth of 97.2%.
For `CCOC(=O)COc1ccc2c(c1)c(C(C)=O)c(C)n2-c1ccc(Cl)cc1` + CCCCNC(=O)OCC#CI [3-iodo-2-propynyl butylcarbamate (IPBC)], the growth was 80.6%.
With `CCOc1ccccc1NC(=O)C(Sc1nc(N)cc(O)n1)c1ccccc1` (stereo unspecified) + CCCCNC(=O)OCC#CI [3-iodo-2-propynyl butylcarbamate (IPBC)] the growth was 110%.
For `Cc1ccc(Nc2nc(SCc3ccccc3)nnc2C)cc1` + CCCCNC(=O)OCC#CI [3-iodo-2-propynyl butylcarbamate (IPBC)], the growth was 88.8%.
`COC(=O)\C1=C\N(NC(=O)C2=CC(=CC=C2Cl)Br)C(=O)C3=CC=CC=C13` + CCCCNC(=O)OCC#CI [3-iodo-2-propynyl butylcarbamate (IPBC)] showed a growth of 86.3%.
`CCOc1ccc(NC(=O)c2cc(CC)c(C)s2)cc1OC` + CCCCNC(=O)OCC#CI [3-iodo-2-propynyl butylcarbamate (IPBC)] gave a growth of 91%.
